Measured values published in article PMC10641524.

Sequences of proteins named here, by UniProt entry; tags and fusion partners are left off.
UniProt Q9NP72: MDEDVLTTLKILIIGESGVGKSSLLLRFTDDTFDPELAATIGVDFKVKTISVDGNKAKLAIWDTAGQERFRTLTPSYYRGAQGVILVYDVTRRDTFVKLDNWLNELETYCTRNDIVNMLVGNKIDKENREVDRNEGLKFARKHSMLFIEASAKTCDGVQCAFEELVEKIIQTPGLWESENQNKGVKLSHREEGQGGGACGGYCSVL
UniProt Q6NUQ1: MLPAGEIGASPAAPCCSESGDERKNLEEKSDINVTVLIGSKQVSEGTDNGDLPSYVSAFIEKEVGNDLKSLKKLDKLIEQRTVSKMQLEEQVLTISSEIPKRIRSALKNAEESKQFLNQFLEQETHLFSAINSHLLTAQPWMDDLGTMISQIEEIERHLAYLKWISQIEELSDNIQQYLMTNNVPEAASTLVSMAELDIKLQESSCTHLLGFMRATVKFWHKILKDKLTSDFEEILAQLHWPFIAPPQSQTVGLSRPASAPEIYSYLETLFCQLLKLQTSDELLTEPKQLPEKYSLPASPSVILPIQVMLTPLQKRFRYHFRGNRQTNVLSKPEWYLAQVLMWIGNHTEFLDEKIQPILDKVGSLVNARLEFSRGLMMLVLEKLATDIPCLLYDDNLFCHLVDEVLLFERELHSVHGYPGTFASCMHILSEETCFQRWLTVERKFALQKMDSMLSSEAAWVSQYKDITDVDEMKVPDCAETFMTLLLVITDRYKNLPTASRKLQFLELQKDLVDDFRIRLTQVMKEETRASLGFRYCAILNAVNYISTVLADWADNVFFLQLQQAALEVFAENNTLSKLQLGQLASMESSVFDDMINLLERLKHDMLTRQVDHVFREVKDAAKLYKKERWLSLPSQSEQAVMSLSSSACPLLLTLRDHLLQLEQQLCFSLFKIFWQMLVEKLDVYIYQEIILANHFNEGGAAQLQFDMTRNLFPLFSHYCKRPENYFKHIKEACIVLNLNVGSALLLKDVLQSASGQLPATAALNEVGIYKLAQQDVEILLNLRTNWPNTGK
UniProt Q6AZY7: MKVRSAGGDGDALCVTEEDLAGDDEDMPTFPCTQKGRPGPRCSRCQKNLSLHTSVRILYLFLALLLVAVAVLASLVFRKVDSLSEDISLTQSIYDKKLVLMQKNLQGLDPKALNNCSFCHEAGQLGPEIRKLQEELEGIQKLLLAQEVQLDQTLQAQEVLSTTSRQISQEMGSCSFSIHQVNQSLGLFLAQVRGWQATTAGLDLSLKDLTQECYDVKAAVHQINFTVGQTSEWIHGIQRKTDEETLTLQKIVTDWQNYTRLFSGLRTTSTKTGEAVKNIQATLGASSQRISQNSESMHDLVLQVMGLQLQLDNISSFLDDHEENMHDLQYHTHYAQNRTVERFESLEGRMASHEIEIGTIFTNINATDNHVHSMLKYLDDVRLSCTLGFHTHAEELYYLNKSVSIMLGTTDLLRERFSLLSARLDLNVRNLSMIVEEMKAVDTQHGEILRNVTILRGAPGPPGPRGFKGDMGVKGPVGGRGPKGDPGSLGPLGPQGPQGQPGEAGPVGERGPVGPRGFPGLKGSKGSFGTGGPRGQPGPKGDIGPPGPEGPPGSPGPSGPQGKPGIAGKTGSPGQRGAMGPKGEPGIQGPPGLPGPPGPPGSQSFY
UniProt P32019: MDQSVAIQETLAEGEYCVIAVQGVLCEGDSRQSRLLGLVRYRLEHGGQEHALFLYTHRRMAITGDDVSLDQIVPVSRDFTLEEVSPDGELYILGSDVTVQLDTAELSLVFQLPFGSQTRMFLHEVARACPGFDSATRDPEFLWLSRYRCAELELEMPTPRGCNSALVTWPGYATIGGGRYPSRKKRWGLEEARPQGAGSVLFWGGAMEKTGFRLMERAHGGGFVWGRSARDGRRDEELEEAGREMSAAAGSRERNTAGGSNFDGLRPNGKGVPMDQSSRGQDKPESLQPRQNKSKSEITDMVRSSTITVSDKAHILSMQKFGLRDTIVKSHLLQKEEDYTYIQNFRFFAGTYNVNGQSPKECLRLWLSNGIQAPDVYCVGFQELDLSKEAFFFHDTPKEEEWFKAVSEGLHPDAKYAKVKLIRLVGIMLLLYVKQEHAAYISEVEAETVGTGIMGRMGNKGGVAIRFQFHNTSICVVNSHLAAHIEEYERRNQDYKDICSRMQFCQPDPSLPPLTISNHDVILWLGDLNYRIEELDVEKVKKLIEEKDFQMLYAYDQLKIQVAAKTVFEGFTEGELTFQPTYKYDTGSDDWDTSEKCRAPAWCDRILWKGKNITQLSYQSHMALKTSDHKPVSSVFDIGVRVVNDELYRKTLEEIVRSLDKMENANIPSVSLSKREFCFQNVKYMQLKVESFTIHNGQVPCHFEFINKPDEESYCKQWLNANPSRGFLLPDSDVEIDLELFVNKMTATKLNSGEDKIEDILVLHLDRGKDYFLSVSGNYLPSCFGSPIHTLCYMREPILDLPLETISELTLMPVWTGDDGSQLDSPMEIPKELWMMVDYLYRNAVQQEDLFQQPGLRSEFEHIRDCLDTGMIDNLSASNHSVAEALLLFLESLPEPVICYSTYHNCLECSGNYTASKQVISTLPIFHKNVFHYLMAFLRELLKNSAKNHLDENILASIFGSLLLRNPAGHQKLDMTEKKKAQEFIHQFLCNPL
UniProt Q9Y282: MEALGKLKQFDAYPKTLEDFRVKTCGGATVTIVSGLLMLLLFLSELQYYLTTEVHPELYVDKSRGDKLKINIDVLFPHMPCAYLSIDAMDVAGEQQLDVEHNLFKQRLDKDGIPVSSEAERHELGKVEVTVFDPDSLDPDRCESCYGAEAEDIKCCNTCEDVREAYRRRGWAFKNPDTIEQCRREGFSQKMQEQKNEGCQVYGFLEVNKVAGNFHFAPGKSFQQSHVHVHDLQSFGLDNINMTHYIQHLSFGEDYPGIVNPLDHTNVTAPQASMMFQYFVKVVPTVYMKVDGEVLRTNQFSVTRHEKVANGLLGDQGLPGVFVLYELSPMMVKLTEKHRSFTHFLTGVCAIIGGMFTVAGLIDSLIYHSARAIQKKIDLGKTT
UniProt Q5T5Y3: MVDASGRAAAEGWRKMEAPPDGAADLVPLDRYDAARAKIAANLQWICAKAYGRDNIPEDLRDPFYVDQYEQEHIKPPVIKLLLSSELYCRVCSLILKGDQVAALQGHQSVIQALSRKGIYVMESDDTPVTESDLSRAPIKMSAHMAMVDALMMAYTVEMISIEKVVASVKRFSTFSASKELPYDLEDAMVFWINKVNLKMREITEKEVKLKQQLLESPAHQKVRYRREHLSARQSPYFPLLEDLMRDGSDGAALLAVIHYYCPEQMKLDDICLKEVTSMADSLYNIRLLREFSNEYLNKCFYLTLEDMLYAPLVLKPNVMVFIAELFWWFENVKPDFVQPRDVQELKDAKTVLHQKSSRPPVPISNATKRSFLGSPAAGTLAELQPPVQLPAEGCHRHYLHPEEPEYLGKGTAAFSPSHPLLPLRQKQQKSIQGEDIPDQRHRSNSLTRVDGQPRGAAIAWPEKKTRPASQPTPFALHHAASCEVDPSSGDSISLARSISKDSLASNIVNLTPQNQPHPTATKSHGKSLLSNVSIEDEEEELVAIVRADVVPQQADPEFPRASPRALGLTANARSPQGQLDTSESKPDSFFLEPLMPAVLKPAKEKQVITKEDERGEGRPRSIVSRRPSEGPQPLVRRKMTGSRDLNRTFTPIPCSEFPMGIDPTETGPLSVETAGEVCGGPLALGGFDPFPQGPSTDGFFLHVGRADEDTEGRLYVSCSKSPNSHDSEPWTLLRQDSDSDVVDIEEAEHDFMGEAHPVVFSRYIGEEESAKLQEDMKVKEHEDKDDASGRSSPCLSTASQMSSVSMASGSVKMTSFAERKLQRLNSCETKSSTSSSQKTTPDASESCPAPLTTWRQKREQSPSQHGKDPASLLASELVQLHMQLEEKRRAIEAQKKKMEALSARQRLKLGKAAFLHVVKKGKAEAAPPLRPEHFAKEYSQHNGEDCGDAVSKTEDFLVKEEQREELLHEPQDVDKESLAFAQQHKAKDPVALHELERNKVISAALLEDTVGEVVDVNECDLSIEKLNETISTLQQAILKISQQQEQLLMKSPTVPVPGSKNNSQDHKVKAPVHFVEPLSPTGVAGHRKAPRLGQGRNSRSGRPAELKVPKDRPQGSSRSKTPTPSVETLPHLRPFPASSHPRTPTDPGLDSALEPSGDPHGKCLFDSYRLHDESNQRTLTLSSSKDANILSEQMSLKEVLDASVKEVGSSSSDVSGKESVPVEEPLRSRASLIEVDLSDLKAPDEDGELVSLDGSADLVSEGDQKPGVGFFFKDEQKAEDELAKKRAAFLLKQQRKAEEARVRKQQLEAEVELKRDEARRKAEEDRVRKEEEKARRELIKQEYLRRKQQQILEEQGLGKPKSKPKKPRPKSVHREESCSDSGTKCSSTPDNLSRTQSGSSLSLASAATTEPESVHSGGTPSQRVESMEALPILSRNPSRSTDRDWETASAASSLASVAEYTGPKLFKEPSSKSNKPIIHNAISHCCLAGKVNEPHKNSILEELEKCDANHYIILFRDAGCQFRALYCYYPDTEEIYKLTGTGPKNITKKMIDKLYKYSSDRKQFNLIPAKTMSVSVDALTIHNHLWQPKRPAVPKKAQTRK
UniProt Q8TD16: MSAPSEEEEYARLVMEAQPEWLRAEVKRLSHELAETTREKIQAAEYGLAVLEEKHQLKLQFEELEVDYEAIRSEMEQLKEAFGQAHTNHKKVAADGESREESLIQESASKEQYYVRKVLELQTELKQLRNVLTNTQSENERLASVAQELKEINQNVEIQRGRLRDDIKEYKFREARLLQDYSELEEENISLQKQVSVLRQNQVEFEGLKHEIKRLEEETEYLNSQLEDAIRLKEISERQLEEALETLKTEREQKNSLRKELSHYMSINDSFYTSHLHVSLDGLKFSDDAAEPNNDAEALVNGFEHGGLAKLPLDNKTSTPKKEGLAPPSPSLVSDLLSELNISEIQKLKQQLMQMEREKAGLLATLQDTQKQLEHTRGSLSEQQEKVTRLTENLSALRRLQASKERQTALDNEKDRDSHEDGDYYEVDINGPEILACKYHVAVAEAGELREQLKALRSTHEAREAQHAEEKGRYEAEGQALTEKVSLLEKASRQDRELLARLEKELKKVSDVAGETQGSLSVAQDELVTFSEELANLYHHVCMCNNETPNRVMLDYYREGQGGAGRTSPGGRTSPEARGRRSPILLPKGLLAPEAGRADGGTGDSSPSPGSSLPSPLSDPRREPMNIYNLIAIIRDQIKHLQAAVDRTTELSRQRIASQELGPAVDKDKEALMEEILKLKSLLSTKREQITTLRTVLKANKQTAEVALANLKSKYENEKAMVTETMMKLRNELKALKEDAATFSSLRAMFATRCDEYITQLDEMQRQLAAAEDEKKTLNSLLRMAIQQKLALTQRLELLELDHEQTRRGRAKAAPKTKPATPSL
UniProt Q9Y426: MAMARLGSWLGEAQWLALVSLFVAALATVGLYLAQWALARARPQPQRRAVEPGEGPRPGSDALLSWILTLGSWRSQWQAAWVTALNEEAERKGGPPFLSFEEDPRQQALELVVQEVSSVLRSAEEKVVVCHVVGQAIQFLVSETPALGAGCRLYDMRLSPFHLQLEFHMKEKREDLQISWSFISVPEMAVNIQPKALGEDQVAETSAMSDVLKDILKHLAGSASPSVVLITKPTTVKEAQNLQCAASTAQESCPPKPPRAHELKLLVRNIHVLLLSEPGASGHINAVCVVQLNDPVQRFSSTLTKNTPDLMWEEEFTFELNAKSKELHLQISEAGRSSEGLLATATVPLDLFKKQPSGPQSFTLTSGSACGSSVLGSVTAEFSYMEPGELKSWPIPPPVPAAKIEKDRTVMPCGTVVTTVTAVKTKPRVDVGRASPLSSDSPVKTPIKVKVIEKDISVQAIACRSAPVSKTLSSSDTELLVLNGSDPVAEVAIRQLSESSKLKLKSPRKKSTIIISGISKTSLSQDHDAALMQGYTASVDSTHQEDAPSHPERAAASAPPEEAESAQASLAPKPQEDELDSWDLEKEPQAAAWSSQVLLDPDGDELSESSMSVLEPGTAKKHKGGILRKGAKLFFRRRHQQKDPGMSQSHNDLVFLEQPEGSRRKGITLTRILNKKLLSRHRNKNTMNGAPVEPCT

B1: MFHAS1 (protein, UniProt Q9Y4C4 1-1052)
chain: MAGMDSGNLKTARLWRDAALRARKLRSNLRQLTLTAAGACPGAGADALESPASPQLVLPANLGDIEALNLGNNGLEEVPEGLGSALGSLRVLVLRRNRFARLPPAVAELGHHLTELDVSHNRLTALGAEVVSALRELRKLNLSHNQLPALPAQLGALAHLEELDVSFNRLAHLPDSLSCLSRLRTLDVDHNQLTAFPRQLLQLVALEELDVSSNRLRGLPEDISALRALKILWLSGAELGTLPAGFCELASLESLMLDNNGLQALPAQFSCLQRLKMLNLSSNLFEEFPAALLPLAGLEELYLSRNQLTSVPSLISGLGRLLTLWLDNNRIRYLPDSIVELTGLEELVLQGNQIAVLPDHFGQLSRVGLWKIKDNPLIQPPYEVCMKGIPYIAAYQKELAHSQPAVQPRLKLLLMGHKAAGKTLLRHCLTEERVEGCPGGGDKEKCYPPSPPPVSKGIEVTSWTADASRGLRFIVYDLAGDESYEVIQPFFLSPGALYVLVVNLATYEPRHFPTTVGSFLHRVGARVPHAVVCIVGTHADLCGERELEEKCLDIHRQIALQEKHDAEGLSRLAKVVDEALARDFELRSASPHAAYYGVSDKNLRRRKAHFQYLLNHRLQILSPVLPVSCRDPRHLRRLRDKLLSVAEHREIFPNLHRVLPRSWQVLEELHFQPPQAQRLWLSWWDSARLGLQAGLTEDRLQSALSYLHESGKLLYFEDSPALKEHVFHNLTRLIDILNVFFQRDPSLLLHKLLLGTSGEGKAEGESSPPMARSTPSQELLRATQLHQYVEGFLLHGLLPAHVIRLLLKPHVQAQQDLQLLLELLEKMGLCYCLNKPKGKPLNGSTAWYKFPCYVQNEVPHAEAWINGTNLAGQSFVAEQLQIEYSFPFTFPLGLFARYSVQINSHVVHRSDGKFQIFAYRGKVPVVVSYRPARGVLQPDTLSIASHASLPNIWTAWQAITPLVEELNVLLQEWPGLHYTVHILCSKCLKRGSPNPHAFPGELLSQPRPEGVAEIICPKNGSERVNVALVYPPTPTVISPCSKKNVGEKHRNQ
B2: BNIP1 (protein, UniProt Q12981 1-228)
chain: MAAPQDVHVRICNQEIVKFDLEVKALIQDIRDCSGPLSALTELNTKVKEKFQQLRHRIQDLEQLAKEQDKESEKQLLLQEVENHKKQMLSNQASWRKANLTCKIAIDNLEKAELLQGGDLLRQRKTTKESLAQTSSTITESLMGISRMMAQQVQQSEEAMQSLVTSSRTILDANEEFKSMSGTIQLGRKLITKYNRRELTDKLLIFLALALFLATVLYIVKKRLFPFL
B3: C2CD2L (protein, UniProt O14523 1-706)
chain: MDPGWGQRDVGWAALLILFAASLLTVFAWLLQYARGLWLARARGDRGPGPALAGEPAGSLRELGVWRSLLRLRATRAGAAEEPGVRGLLASLFAFKSFRENWQRAWVRALNEQACRNGSSIQIAFEEVPQLPPRASISHVTCVDQSEHTMVLRCQLSAEEVRFPVSVTQQSPAAVSMETYHVTLTLPPTQLEVNLEEIPGEGLLISWAFTDRPDLSLTVLPKLQARERGEEQVELSTIEELIKDAIVSTQPAMMVNLRACSAPGGLVPSEKPPMMPQAQPAIPRPNRLFLRQLRASHLGNELEGTEELCCVAELDNPMQQKWTKPARAGSEVEWTEDLALDLGPQSRELTLKVLRSSSCGDTELLGQATLPVGSPSRPLSRRQLCPLTPGPGKALGPAATMAVELHYEEGSPRNLGTPTSSTPRPSITPTKKIELDRTIMPDGTIVTTVTTVQSRPRIDGKLDSPSRSPSKVEVTEKTTTVLSESSGPSNTSHSSSRDSHLSNGLDPVAETAIRQLTEPSGRVAKKTPTKRSTLIISGVSKVPIAQDELALSLGYAASLEASVQDDAGTSGGPSSPPSDPPAMSPGPLDALSSPTSVQEADETTRSDISERPSVDDIESETGSTGALETRSLKDHKVSFLRSGTKLIFRRRPRQKEAGLSQSHDDLSNATATPSVRKKAGSFSRRLIKRFSFKSKPKANGNPSPQL
B4: REEP4 (protein, UniProt Q9H6H4 1-257)
chain: MVSWMICRLVVLVFGMLCPAYASYKAVKTKNIREYVRWMMYWIVFALFMAAEIVTDIFISWFPFYYEIKMAFVLWLLSPYTKGASLLYRKFVHPSLSRHEKEIDAYIVQAKERSYETVLSFGKRGLNIAASAAVQAATKSQGALAGRLRSFSMQDLRSISDAPAPAYHDPLYLEDQVSHRRPPIGYRAGGLQDSDTEDECWSDTEAVPRAPARPREKPLIRSQSLRVVKRKPPVREGTSRSLKVRTRKKTVPSDVDS
B5: RAB3GAP1 (protein, UniProt Q15042 1-981)
chain: MAADSEPESEVFEITDFTTASEWERFISKVEEVLNDWKLIGNSLGKPLEKGIFTSGTWEEKSDEISFADFKFSVTHHYLVQESTDKEGKDELLEDVVPQSMQDLLGMNNDFPPRAHCLVRWYGLREFVVIAPAAHSDAVLSESKCNLLLSSVSIALGNTGCQVPLFVQIHHKWRRMYVGECQGPGVRTDFEMVHLRKVPNQYTHLSGLLDIFKSKIGCPLTPLPPVSIAIRFTYVLQDWQQYFWPQQPPDIDALVGGEVGGLEFGKLPFGACEDPISELHLATTWPHLTEGIIVDNDVYSDLDPIQAPHWSVRVRKAENPQCLLGDFVTEFFKICRRKESTDEILGRSAFEEEGKETADITHALSKLTEPASVPIHKLSVSNMVHTAKKKIRKHRGVEESPLNNDVLNTILLFLFPDAVSEKPLDGTTSTDNNNPPSESEDYNLYNQFKSAPSDSLTYKLALCLCMINFYHGGLKGVAHLWQEFVLEMRFRWENNFLIPGLASGPPDLRCCLLHQKLQMLNCCIERKKARDEGKKTSASDVTNIYPGDAGKAGDQLVPDNLKETDKEKGEVGKSWDSWSDSEEEFFECLSDTEELKGNGQESGKKGGPKEMANLRPEGRLYQHGKLTLLHNGEPLYIPVTQEPAPMTEDLLEEQSEVLAKLGTSAEGAHLRARMQSACLLSDMESFKAANPGCSLEDFVRWYSPRDYIEEEVIDEKGNVVLKGELSARMKIPSNMWVEAWETAKPIPARRQRRLFDDTREAEKVLHYLAIQKPADLARHLLPCVIHAAVLKVKEEESLENISSVKKIIKQIISHSSKVLHFPNPEDKKLEEIIHQITNVEALIARARSLKAKFGTEKCEQEEEKEDLERFVSCLLEQPEVLVTGAGRGHAGRIIHKLFVNAQRAAAMTPPEEELKRMGSPEERRQNSVSDFPPPAGREFILRTTVPRPAPYSKALPQRMYSVLTKEDFRLAGAFSSDTSFF
B6: TMCO4 (endogenous) (protein, UniProt Q5TGY1 1-634)
chain: MAMWNRPCQRLPQQPLVAEPTAEGEPHLPTGRELTEANRFAYAALCGISLSQLFPEPEHSSFCTEFMAGLVQWLELSEAVLPTMTAFASGLGGEGADVFVQILLKDPILKDDPTVITQDLLSFSLKDGHYDARARVLVCHMTSLLQVPLEELDVLEEMFLESLKEIKEEESEMAEASRKKKENRRKWKRYLLIGLATVGGGTVIGVTGGLAAPLVAAGAATIIGSAGAAALGSAAGIAIMTSLFGAAGAGLTGYKMKKRVGAIEEFTFLPLTEGRQLHITIAVTGWLASGKYRTFSAPWAALAHSREQYCLAWEAKYLMELGNALETILSGLANMVAQEALKYTVLSGIVAALTWPASLLSVANVIDNPWGVCLHRSAEVGKHLAHILLSRQQGRRPVTLIGFSLGARVIYFCLQEMAQEKDCQGIIEDVILLGAPVEGEAKHWEPFRKVVSGRIINGYCRGDWLLSFVYRTSSVQLRVAGLQPVLLQDRRVENVDLTSVVSGHLDYAKQMDAILKAVGIRTKPGWDEKGLLLAPGCLPSEEPRQAAAAASSGETPHQVGQTQGPISGDTSKLAMSTDPSQAQVPVGLDQSEGASLPAAASPERPPICSHGMDPNPLGCPDCACKTQGPSTGLD

Each molecule was assayed against BirA*-RAB18 (UniProt Q9NP72) (assay: proximity labelling; BioID: BirA*-RAB18 transiently expressed in WT HeLa cells (compared with RAB3GAP1-, RAB3GAP2- and TRAPPC9-null cells), 50 uM biotin 24 h; biotinylated proteins purified on streptavidin Dynabeads, label-free quantitative mass spectrometry; hits are proteins with RAB3GAP-null:WT intensity ratio <=0.5).

binding, binds:
RINT1 (from UniProt Q6NUQ1 1-792)
NBAS (from UniProt A2RRP1 1-2371)
SCARA3 (from UniProt Q6AZY7 1-606)
INPP5B (endogenous) (from UniProt P32019 1-993)
ERGIC3 (from UniProt Q9Y282 1-383)
CAMSAP1 (from UniProt Q5T5Y3 1-1602)
BICD2 (from UniProt Q8TD16 1-824)
C2CD2 (from UniProt Q9Y426 1-696)
B1
B2
B3
B4
B5
B6

No constants are given. Whether binding was seen depends on the method and setting. In cells and extracts the contact can be indirect. A yes stands for co-enrichment or nearness to the bait. Other partners may have been found.
